The results in this text go back to the supplement of paper PMC10849652.

By UniProt entry, the sequences of proteins in these tests, tags left out. Where a name states a change or a piece, a line headed by the entry shows the natural chain unless it says otherwise.
UniProt P07099: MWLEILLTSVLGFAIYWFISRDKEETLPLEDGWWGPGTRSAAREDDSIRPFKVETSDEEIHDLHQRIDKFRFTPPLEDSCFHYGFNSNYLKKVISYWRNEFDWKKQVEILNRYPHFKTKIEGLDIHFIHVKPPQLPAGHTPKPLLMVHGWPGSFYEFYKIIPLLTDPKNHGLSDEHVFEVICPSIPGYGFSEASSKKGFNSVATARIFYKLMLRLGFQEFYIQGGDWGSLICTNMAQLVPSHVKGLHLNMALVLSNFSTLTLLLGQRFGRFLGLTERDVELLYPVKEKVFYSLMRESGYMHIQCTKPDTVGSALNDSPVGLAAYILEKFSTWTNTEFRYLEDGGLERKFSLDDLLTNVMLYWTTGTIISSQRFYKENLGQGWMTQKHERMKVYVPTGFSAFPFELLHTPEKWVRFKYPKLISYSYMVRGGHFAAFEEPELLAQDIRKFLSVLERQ
UniProt Q06265, whole entry, looked up: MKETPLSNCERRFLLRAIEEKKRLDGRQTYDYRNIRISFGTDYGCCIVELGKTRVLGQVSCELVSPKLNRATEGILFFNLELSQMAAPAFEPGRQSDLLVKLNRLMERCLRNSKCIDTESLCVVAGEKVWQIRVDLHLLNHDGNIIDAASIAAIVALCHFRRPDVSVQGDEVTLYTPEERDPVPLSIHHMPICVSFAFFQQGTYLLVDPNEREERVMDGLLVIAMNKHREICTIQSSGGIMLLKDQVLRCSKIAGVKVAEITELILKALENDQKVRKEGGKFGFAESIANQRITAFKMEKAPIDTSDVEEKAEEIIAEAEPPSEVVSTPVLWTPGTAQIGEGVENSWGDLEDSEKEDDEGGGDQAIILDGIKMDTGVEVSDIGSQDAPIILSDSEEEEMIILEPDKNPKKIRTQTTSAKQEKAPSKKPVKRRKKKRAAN
UniProt Q86UK5: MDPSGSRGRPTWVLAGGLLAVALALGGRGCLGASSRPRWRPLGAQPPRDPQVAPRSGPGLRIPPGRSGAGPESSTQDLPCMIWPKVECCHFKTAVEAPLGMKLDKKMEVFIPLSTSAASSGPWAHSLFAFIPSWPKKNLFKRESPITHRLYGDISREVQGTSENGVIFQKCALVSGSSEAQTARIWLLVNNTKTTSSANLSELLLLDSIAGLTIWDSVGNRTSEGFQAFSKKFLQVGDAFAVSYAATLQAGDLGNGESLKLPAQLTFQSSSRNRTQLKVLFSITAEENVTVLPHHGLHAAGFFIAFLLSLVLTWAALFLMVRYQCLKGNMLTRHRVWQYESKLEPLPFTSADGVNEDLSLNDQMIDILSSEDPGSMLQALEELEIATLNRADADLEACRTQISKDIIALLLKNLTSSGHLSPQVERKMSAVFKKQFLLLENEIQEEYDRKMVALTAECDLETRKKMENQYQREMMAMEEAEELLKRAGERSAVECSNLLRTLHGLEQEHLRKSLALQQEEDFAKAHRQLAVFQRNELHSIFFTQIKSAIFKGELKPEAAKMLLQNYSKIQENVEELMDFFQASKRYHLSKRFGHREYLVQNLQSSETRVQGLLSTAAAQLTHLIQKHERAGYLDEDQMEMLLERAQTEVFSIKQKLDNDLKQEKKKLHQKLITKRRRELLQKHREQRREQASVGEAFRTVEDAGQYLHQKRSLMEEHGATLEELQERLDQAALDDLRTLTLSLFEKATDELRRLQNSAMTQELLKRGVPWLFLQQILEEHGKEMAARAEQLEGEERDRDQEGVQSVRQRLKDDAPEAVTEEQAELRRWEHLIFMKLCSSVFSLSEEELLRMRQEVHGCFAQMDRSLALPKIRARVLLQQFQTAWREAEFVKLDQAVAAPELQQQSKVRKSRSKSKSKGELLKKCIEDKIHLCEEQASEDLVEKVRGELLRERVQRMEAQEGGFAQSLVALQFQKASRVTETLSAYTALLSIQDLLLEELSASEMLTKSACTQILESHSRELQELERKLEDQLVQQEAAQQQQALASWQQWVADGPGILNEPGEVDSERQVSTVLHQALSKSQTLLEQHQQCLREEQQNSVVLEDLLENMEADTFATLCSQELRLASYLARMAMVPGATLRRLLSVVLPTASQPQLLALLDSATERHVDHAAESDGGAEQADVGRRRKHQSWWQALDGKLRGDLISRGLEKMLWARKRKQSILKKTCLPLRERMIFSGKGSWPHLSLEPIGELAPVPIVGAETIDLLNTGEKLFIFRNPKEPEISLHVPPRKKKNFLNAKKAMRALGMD
UniProt Q96A26: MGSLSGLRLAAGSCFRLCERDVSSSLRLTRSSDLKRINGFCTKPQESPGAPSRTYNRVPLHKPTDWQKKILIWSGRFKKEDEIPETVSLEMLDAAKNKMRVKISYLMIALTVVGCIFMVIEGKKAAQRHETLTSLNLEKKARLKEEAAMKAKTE
UniProt P16930: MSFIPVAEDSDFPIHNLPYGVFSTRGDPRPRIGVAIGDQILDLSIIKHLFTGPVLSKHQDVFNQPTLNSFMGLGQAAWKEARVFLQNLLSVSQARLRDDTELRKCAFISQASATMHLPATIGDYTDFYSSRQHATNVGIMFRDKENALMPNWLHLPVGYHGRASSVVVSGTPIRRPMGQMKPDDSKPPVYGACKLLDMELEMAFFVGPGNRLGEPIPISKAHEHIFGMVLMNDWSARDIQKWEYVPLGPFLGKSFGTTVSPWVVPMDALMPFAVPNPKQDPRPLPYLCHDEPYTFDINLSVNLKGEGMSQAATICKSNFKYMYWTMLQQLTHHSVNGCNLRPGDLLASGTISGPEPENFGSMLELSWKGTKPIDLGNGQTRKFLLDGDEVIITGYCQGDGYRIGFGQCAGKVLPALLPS
UniProt Q5BKY9: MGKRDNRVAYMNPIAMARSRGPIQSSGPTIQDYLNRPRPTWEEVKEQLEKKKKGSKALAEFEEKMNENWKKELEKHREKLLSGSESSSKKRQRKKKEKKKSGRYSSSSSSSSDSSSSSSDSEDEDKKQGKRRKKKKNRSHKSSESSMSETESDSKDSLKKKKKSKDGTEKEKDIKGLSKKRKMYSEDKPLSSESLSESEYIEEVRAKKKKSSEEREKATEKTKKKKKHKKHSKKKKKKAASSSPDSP
UniProt Q9UNN5: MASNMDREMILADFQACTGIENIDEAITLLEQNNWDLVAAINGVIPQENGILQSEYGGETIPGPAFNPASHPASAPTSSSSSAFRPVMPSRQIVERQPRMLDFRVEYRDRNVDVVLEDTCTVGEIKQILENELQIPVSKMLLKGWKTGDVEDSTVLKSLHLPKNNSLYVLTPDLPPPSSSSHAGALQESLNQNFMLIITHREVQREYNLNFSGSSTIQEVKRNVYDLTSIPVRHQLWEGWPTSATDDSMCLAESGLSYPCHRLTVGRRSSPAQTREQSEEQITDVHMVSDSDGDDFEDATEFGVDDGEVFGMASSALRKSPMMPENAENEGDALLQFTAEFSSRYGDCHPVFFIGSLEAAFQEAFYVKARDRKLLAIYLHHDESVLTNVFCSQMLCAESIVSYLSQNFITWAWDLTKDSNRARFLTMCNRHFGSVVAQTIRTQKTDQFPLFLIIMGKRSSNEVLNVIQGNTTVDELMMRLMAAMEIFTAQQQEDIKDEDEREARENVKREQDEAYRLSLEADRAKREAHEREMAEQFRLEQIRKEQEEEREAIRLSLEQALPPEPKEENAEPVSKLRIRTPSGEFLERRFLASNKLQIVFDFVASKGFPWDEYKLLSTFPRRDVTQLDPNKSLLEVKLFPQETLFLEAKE
UniProt Q96E09: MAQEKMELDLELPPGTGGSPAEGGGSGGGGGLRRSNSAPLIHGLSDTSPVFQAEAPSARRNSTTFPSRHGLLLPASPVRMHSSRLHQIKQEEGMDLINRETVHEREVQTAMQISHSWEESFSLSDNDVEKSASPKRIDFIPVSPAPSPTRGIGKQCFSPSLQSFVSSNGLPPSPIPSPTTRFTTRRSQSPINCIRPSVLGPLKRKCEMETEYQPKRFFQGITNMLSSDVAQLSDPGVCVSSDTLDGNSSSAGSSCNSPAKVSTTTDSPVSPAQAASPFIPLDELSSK
UniProt Q9Y282: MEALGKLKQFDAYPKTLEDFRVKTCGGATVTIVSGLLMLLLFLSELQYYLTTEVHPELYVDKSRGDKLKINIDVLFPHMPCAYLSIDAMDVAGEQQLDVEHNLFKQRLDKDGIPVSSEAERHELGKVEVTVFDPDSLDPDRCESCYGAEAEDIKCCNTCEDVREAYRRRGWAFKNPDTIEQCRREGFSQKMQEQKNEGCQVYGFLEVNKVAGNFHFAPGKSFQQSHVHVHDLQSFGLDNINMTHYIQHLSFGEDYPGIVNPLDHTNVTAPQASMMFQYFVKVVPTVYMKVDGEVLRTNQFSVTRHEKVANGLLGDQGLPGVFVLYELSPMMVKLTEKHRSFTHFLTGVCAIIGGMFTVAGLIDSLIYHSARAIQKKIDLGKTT
UniProt Q8IYI6: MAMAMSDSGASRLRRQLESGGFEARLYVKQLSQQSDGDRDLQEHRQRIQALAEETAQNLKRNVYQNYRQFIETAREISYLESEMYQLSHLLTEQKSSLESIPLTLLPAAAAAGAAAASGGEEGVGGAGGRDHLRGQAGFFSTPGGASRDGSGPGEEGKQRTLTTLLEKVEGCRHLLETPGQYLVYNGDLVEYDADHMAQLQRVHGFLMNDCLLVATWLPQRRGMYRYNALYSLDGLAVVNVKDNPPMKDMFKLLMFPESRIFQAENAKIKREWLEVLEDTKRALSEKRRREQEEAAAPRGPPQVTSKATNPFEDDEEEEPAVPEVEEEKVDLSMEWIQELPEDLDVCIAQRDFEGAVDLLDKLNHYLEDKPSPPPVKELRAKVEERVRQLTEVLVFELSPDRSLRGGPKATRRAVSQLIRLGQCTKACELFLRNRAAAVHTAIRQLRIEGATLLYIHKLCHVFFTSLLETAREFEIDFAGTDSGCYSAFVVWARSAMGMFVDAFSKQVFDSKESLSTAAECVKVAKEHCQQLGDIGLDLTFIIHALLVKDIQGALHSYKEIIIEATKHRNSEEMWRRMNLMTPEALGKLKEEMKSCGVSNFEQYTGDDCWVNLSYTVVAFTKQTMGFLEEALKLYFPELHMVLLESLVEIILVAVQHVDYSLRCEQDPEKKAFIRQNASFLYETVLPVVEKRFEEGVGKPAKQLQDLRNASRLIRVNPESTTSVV
UniProt Q96GK7: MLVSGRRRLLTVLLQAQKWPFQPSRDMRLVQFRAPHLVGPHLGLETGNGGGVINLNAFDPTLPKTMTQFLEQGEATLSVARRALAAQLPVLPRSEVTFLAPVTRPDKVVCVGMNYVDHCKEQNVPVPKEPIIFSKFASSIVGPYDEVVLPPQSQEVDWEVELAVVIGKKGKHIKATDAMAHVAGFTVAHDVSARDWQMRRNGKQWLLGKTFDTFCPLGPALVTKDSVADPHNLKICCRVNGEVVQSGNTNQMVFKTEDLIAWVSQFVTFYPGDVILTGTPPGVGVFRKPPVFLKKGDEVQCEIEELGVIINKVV
UniProt Q9Y624, whole entry, looked up, stated change not applied: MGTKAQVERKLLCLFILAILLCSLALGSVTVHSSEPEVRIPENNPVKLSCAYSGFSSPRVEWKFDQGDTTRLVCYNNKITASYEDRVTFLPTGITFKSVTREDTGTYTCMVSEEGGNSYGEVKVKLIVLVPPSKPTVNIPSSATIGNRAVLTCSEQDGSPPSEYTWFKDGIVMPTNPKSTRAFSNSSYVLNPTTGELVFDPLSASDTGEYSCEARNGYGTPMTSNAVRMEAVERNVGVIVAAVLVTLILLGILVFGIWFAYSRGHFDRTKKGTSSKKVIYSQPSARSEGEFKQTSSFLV
UniProt Q0VG06: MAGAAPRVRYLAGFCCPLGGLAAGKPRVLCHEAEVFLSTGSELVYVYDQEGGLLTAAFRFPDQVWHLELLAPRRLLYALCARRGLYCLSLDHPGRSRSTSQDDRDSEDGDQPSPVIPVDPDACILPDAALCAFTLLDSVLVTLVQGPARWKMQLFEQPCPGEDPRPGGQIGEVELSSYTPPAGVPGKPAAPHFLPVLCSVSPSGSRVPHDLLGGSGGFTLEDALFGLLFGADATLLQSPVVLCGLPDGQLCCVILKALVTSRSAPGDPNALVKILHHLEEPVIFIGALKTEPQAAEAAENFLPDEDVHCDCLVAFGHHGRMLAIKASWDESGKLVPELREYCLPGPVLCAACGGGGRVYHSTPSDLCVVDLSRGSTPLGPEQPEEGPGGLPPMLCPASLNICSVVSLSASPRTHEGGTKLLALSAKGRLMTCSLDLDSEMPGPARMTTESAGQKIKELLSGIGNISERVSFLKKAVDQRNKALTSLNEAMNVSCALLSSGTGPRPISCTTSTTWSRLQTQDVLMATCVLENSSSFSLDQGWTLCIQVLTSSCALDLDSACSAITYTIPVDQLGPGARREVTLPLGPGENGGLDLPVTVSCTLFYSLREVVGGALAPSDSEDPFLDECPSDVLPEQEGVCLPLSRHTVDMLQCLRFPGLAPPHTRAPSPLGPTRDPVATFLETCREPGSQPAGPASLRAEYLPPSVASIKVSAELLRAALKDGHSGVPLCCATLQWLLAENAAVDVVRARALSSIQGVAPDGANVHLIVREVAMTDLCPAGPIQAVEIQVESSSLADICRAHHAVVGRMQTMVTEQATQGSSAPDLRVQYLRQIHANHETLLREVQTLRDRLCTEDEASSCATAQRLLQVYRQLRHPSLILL

The list shows a part of the results.

Compound in one test: C1=CC=C2C(=C1)C3=NNC4=CC=CC(=C43)C2=O
As to the kind of experiment: log2 fold change, soluble protein after heating vs DMSO (PISA); higher = thermal stabilisation; K562 cells, 10 uM, 30 min; active = over 0.2 and 3.5 SD of the protein, either way, in both replicates (recomputed). In short, it runs like this: (§1)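 Soluble protein was quantified by TMTpro 16plex LC-MS/MS after channel sums were equalised. It was obtained as the supernatant after 21,000xg for 90 min from pooled aliquots of K562 cells (2×10^6 cells/mL, 10 μM compound, 30 min) heated for 3 min across 48°C-58°C and extracted in PBS with 0.5% NP-40 at 4°C. Thermal stability values are relative to control samples and come from duplicates. They are given as log2 fold changes.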
For EPB41L2 (UniProt O43491), the log2 fold change was inactive: -0.088.

For EPHX1 (UniProt P07099), the log2 fold change is inactive: -0.045.

In the case of F5 (UniProt P12259), the log2 fold change is inactive: -0.064.

For EXOSC9 isoform 2 (UniProt Q06265), the log2 fold change is inactive: 0.003.

For EVC2 (UniProt Q86UK5), the log2 fold change is inactive: 0.061.

With FAM162A (UniProt Q96A26), the log2 fold change is inactive: -0.012.

Take FAH isoform 2 (UniProt P16930): the log2 fold change was inactive: 0.

On to ETFA (UniProt P13804), for which the log2 fold change was inactive: 0.015.

As for FAM133B (UniProt Q5BKY9), the log2 fold change is inactive: 0.

Take FAHD2B (UniProt Q6P2I3): the log2 fold change is inactive: -0.019.

With FAF1 (UniProt Q9UNN5), the log2 fold change is inactive: -0.022.

For the target FAM122A (UniProt Q96E09), the log2 fold change is inactive: 0.03.

On to EXOSC1 (UniProt Q9Y3B2), for which the log2 fold change is inactive: -0.001.

EXOC4 (UniProt Q96A65): the log2 fold change is inactive: -0.018.

On to ERLIN2 (UniProt O94905), for which the log2 fold change was inactive: -0.054.

On to ETNK1 (UniProt Q9HBU6), for which the log2 fold change was inactive: 0.028.

For ERGIC3 isoform 3 (UniProt Q9Y282), the log2 fold change was inactive: -0.042.

Consider EXOC8 (UniProt Q8IYI6), for which the log2 fold change was inactive: 0.001.

As to EXOC5 (UniProt O00471), the log2 fold change was inactive: 0.015.

In the case of ERMAP (UniProt Q96PL5), the log2 fold change is inactive: -0.031.

With FAM120A isoform 6 (UniProt Q9NZB2), the log2 fold change is inactive: -0.06.

Consider ETF1 (UniProt P62495), for which the log2 fold change is inactive: 0.007.

Consider ESPL1 (UniProt Q14674), for which the log2 fold change is inactive: 0.182.

With ERP44 (UniProt Q9BS26), the log2 fold change was inactive: 0.007.

Turning to FAHD2A (UniProt Q96GK7), the log2 fold change is inactive: -0.034.

On to ERLEC1 (UniProt Q96DZ1), for which the log2 fold change was inactive: -0.033.

Consider FADS1, A0A0A0MR51, for which the log2 fold change is inactive: -0.008.

Take F11R (UniProt Q9Y624): the log2 fold change was inactive: -0.09.

For FAAP100 (UniProt Q0VG06), the log2 fold change was inactive: 0.023.

In the case of ERCC6 (UniProt Q03468), the log2 fold change is inactive: 0.003.

Consider EXOSC4 (UniProt Q9NPD3), for which the log2 fold change is inactive: -0.026.

For ESRRA (UniProt P11474), the log2 fold change was inactive: -0.076.

Compound in another test: C1CCN(C1)C(=O)NC2=CC=CC(=C2)NC3=NC=C(C(=N3)NCCC4=CN=CN4)Br
The test is described as above. The gist of the method:
as §1
Turning to EPB41L2 (UniProt O43491), the log2 fold change was inactive: -0.09.

Consider EPHX1 (UniProt P07099), for which the log2 fold change is inactive: 0.028.

With F5 (UniProt P12259), the log2 fold change was inactive: 0.

For EXOSC9 isoform 2 (UniProt Q06265), the log2 fold change is inactive: -0.036.

On to EVC2 (UniProt Q86UK5), for which the log2 fold change was inactive: -0.042.

Regarding FAM162A (UniProt Q96A26), the log2 fold change is inactive: -0.028.

Take FAH isoform 2 (UniProt P16930): the log2 fold change was inactive: 0.054.

For ETFA (UniProt P13804), the log2 fold change is inactive: 0.015.

For FAM133B (UniProt Q5BKY9), the log2 fold change is inactive: 0.021.

FAF1 (UniProt Q9UNN5): the log2 fold change is inactive: 0.015.

Consider FAM122A (UniProt Q96E09), for which the log2 fold change is inactive: 0.031.

EXOSC1 (UniProt Q9Y3B2): the log2 fold change is inactive: 0.001.

For EXOC4 (UniProt Q96A65), the log2 fold change is inactive: -0.02.

On to ERLIN2 (UniProt O94905), for which the log2 fold change is inactive: -0.002.

For ETNK1 (UniProt Q9HBU6), the log2 fold change was inactive: -0.033.

As to ERGIC3 isoform 3 (UniProt Q9Y282), the log2 fold change was inactive: -0.001.

As to EXOC8 (UniProt Q8IYI6), the log2 fold change was inactive: -0.053.

As to EXOC5 (UniProt O00471), the log2 fold change was inactive: 0.004.

In the case of ERMAP (UniProt Q96PL5), the log2 fold change was inactive: -0.055.

In the case of FAM120A isoform 6 (UniProt Q9NZB2), the log2 fold change is inactive: 0.102.

ETF1 (UniProt P62495): the log2 fold change is inactive: 0.018.

Consider ERP44 (UniProt Q9BS26), for which the log2 fold change is inactive: 0.024.

Consider FAHD2A (UniProt Q96GK7), for which the log2 fold change was inactive: -0.028.

For the target ERLEC1 (UniProt Q96DZ1), the log2 fold change is inactive: -0.007.

Consider FADS1, A0A0A0MR51, for which the log2 fold change is inactive: -0.006.

Turning to F11R (UniProt Q9Y624), the log2 fold change is inactive: -0.021.

Consider FAAP100 (UniProt Q0VG06), for which the log2 fold change was inactive: -0.122.

ERCC6 (UniProt Q03468): the log2 fold change is inactive: -0.065.

For the target EXOSC4 (UniProt Q9NPD3), the log2 fold change was inactive: -0.075.

For ESRRA (UniProt P11474), the log2 fold change was inactive: 0.009.

Compound in a further test: C1CN(CCC1(CC2=CC=C(C=C2)Cl)N)C3=NC=NC4=C3C=CN4
Described as above. In short, it runs like this:
as §1
Take EPB41L2 (UniProt O43491): the log2 fold change was inactive: 0.042.

Take EPHX1 (UniProt P07099): the log2 fold change was inactive: 0.06.

As for F5 (UniProt P12259), the log2 fold change is inactive: 0.052.

As to EXOSC9 isoform 2 (UniProt Q06265), the log2 fold change was inactive: 0.053.

Regarding EVC2 (UniProt Q86UK5), the log2 fold change is inactive: -0.117.

Turning to FAM162A (UniProt Q96A26), the log2 fold change was inactive: -0.052.

For FAH isoform 2 (UniProt P16930), the log2 fold change was inactive: 0.117.

Consider ETFA (UniProt P13804), for which the log2 fold change is inactive: 0.034.

On to FAM133B (UniProt Q5BKY9), for which the log2 fold change was inactive: -0.074.

Consider FAF1 (UniProt Q9UNN5), for which the log2 fold change is inactive: 0.017.

Consider FAM122A (UniProt Q96E09), for which the log2 fold change was inactive: -0.075.

For EXOSC1 (UniProt Q9Y3B2), the log2 fold change was inactive: -0.021.

Consider EXOC4 (UniProt Q96A65), for which the log2 fold change is inactive: -0.083.

Take ERLIN2 (UniProt O94905): the log2 fold change was inactive: -0.097.

On to ETNK1 (UniProt Q9HBU6), for which the log2 fold change is inactive: -0.119.

Regarding ERGIC3 isoform 3 (UniProt Q9Y282), the log2 fold change was inactive: 0.071.

Regarding EXOC8 (UniProt Q8IYI6), the log2 fold change was inactive: -0.054.

For EXOC5 (UniProt O00471), the log2 fold change was inactive: -0.015.

ERMAP (UniProt Q96PL5): the log2 fold change was inactive: 0.036.

As to FAM120A isoform 6 (UniProt Q9NZB2), the log2 fold change was inactive: -0.05.

As for ETF1 (UniProt P62495), the log2 fold change is inactive: 0.022.

Turning to ERP44 (UniProt Q9BS26), the log2 fold change is inactive: -0.005.

With FAHD2A (UniProt Q96GK7), the log2 fold change is inactive: -0.03.

ERLEC1 (UniProt Q96DZ1): the log2 fold change was inactive: -0.02.

Regarding FADS1, A0A0A0MR51, the log2 fold change was inactive: 0.002.

In the case of F11R (UniProt Q9Y624), the log2 fold change is inactive: 0.054.

For the target FAAP100 (UniProt Q0VG06), the log2 fold change is inactive: 0.004.

Regarding ERCC6 (UniProt Q03468), the log2 fold change was inactive: 0.106.

With EXOSC4 (UniProt Q9NPD3), the log2 fold change is inactive: 0.032.

ESRRA (UniProt P11474): the log2 fold change is inactive: 0.158.
